Structures can show the parent of a compound that is named as a salt. The list shows a part of the results. Small differences around the control level are noise.
test system: hPSC-derived cortical neurons (WA09); experiment: nucleus roundness z-score vs screen plate; higher = rounder nuclei (more mature); conditions: 5 µM; treatment: days 7-14 after plating, readout day 21

| Structure (SMILES) | nucleus roundness z-score |
| --- | --- |
| Cc1ncc(CO)c(CO)c1O [Pyridoxine HCl] | 1.48 |
| Cc1ccc(S(=O)(=O)NC(=O)NN2CC3CCCC3C2)cc1 (centres undefined) [Gliclazide] | 0.548 |
| CCCC(CCC)C(=O)O [Divalproex Sodium] | 0.256 |
| CCOC(=O)C1=C[C@@H](OC(CC)CC)[C@H](NC(C)=O)[C@@H](N)C1 [Oseltamivir Phosphate] | -0.0957 |
| O=C(O)c1cccnc1 [Nicotinic Acid] | -0.0582 |
| N=C(N)NC(=N)N1CCOCC1 [Moroxydine HCl] | 1.23 |
| CCCN(CCC)CCc1cccc2c1CC(=O)N2 [Ropinirole HCl] | 0.203 |
| CCCN[C@H]1CCc2nc(N)sc2C1 [Pramipexole] | -0.908 |
| C[C@H]1C[C@H]2[C@@H]3CCC4=CC(=O)C=C[C@]4(C)[C@@]3(F)[C@@H](O)C[C@]2(C)[C@@]1(O)C(=O)CO [Betamethasone] | -0.0958 |
| CN(C)c1ccc(O)c2c1C[C@H]1C[C@H]3[C@H](N(C)C)C(O)=C(C(N)=O)C(=O)[C@@]3(O)C(O)=C1C2=O [Minocycline HCl] | -0.251 |
| Cc1cc(Nc2nc(N[C@@H](C)c3ncc(F)cn3)ncc2Cl)[nH]n1 | -1.32 |
| COc1cc(F)c(C(C)C)cc1-c1ccc(C(F)(F)F)cc1CN1C(=O)O[C@H](c2cc(C(F)(F)F)cc(C(F)(F)F)c2)[C@@H]1C [Anacetrapib (MK-0859)] | -0.737 |
| COc1cc(CCC(C)=O)ccc1O [Vanillylacetone] | -0.726 |
| Cc1cccc(Nc2cc(Cl)nc(SCC(=O)O)n2)c1C | 0.00576 |

Part of the list above, in CSV form.
Structure (SMILES),nucleus roundness z-score
CCOC(=O)C1=C[C@@H](OC(CC)CC)[C@H](NC(C)=O)[C@@H](N)C1 [Oseltamivir Phosphate],-0.0957
O=C(O)c1cccnc1 [Nicotinic Acid],-0.0582
N=C(N)NC(=N)N1CCOCC1 [Moroxydine HCl],1.23
